These results are taken from article PMC5566832.

In assay [1] the target is T1, GFP-CLASP1_(1256-1538) (the kinetochore-binding domain of CLASP1) (human) (UniProt Q7Z460).
T1 sequence: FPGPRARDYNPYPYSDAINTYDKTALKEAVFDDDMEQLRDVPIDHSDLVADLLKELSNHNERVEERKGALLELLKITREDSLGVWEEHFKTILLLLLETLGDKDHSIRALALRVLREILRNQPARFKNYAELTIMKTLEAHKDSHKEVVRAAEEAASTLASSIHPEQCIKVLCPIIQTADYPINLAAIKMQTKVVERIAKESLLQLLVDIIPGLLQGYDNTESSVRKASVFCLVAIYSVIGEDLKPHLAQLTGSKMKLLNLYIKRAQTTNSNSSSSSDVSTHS
As to the kind of experiment: co-IP; GFP-TRAP magnetic beads on lysate of TaC12 cells transduced with GFP-CLASP1(1256-1538); lysis buffer with 0.5% NP-40; Western blot; control: nontransduced TaC12. (In general: In western blotting, separated proteins are transferred to a membrane and probed.)

Assay [2] has as its target bovine CLASP1 (endogenous, host cell) (bovine (endogenous in TaC12)). Kind of assay: co-IP; IP of endogenous CLASP1 with 1 ug rabbit anti-CLASP1 antibody on protein G Dynabeads from 1 mg TaC12 lysate, overnight at 4 C; 50 mM Tris-HCl pH 7.4, 150 mM NaCl, 1 mM EDTA, 1% NP-40, 0.25% sodium deoxycholate; mock: rabbit IgG; Western blot.

These are yes or no findings as the source states them, for the method shown. In cells and extracts the contact can be indirect. For some assays here: A result given as binding can be weak or reduced; the word gives no strength. For some assays here: Where a sequence is shown, tags or fusion partners need not be part of it.

Theileria schizont surface protein gp34: the binding result in assay [1] is given as “no binding”.

B1: T. annulata schizont membrane protein p104 (TA08425), endogenous (protein, UniProt Q4U9M9 20-873)
chain: DELVMSPIPTTDVQPKVTFDINSEVSSGPLYLNPVEMAGVKYLQLQRQPGVQVHKVVEGDIVIWENEEMPLYTCAIVTQNEVPYMAYVELLEDPDLIFFLKEGDQWAPIPEDQYLARLQQLRQQIHTESFFSLNLSFQHENYKYEMVSSFQHSIKMVVFTPKNGHICKMVYDKNIRIFKALYNEYVTSVIGFFRGLKLLLLNIFVIDDRGMIGNKYFQLLDDKYAPISVQGYVATIPKLKDFAEPYHPIILDISDIDYVNFYLGDATYHDPGFKIVPKTPQCITKVVDGNEVIYESSNPSVECVYKVTYYDKKNESMLRLDLNHSPPSYTSYYAKREGVWVTSTYIDLEEKIEELQDHRSTELDVMFMSDKDLNVVPLTNGNLEYFMVTPKPHRDIIIVFDGSEVLWYYEGLENHLVCTWIYVTEGAPRLVHLRVKDRIPQNTDIYMVKFGEYWVRISKTQYTQEIKKLIKKSKKKLPSIEEEDSDKHGGPPKGPEPPTGPGHSSSESKEHEDSKESKEPKEHGSPKETKEGEVTKKPGPAKEHKPSKIPVYTKRPEFPKKSKSPKRPESPKSPKRPVSPQRPVSPKSPKRPESLDIPKSPKRPESPKSPKRPVSPQRPVSPRRPESPKSPKSPKSPKSPKVPFDPKFKEKLYDSYLDKAAKTKETVTLPPVLPTDESFTHTPIGEPTAEQPDDIEPIEESVFIKETGILTEEVKTEDIHSETGEPEEPKRPDSPTKHSPKPTGTHPSMPKKRRRSDGLALSTTDLESEAGRILRDPTGKIVTMKRSKSFDDLTTVREKEHMGAEIRKIVVDDDGTEADDEDTHPSKEKHLSTVRRRRPRPKKSSKSSKPRKPD
Take B1: the binding entry in assay [2] was “binds”.
